# In PubChem BioAssay AID588497 (NMMLSC, 2011):
# Screen size: about 360,000 compounds; about 780 (0.22%) were called active. Inconclusive means that the source gave no clear call. Such entries were picked first, then a sample of the others. Cut-off read from the data, not from the text of the source: active = inhibition above about 35% (passing the limit was not always enough); inconclusive = no clear call, values can overlap the other calls.
# System: Botulinum neurotoxin type F light chain protease (Clostridium botulinum)
# Assay: BoNT/F light chain protease inhibitors, primary screen, biochemical, flow cytometry, MLPCN library (AID 588497); note: plate controls were buffer without enzyme for full effect and enzyme alone for no effect
# Conditions: Multiplex microsphere protease cleavage assay, at 10 µM, stronger effect = higher value
row,SMILES,inhibition
1,Cc1ccc2oc(/N=C(\N)NC(=O)C3CC3)nc2c1,inconclusive: 5.7%
2,O=C(/C=C/c1cccs1)NCc1ccc2c(c1)OCO2,inconclusive: -5.7%
3,CCCCC(=O)NC(c1ccc(OC)c(OC)c1)c1ccc2cccnc2c1O (stereo unspecified),inconclusive: -12.4%
4,O=C(NNc1c(Cl)cccc1Cl)c1ccno1,inconclusive: 45.8%
5,COc1ccc(-n2c(C)c(C(C)=O)c3cc(OC(C)=O)ccc32)cc1,inconclusive: 6%
6,Cc1ccc(CNC(=O)CN2CCN(c3ccc(F)cc3)CC2)cc1,inconclusive: 30.8%
7,CC(=O)N1CC2(CC(c3ccccc3F)=NO2)CN1c1ccc(Cl)cc1 (stereo unspecified),inactive: -7.7%
8,COc1ccc(-n2c(C)nc(N)c2C(=O)c2ccccc2)cc1,inconclusive: -53.9%
9,CCc1ccccc1NC(=O)CNC(=O)c1cc(C2CC2)nc2c1cnn2C(C)C,inconclusive: 9.3%
10,CCc1ccc(C(=O)CN2C(=O)NC3(CCCCCC3)C2=O)cc1,active: 42.8%
11,Cc1cc(O)c2c(c1)OC(C)(C)C1=C2CC(C)CC1 (stereo unspecified),inconclusive: 25.6%
12,CCCNC(=O)C1(C)CCN(C(=O)c2cccnc2Oc2ccccc2)C1 (stereo unspecified),inactive: -0.2%
13,Cc1ccc(C#N)c(SCc2cccc(Br)c2)n1,inconclusive: 40%
14,Cc1ccccc1C(=O)Nn1cnnc1,inconclusive: -17.6%
15,COc1ccc(NC(=O)CCN2C(=O)c3ccccc3C2=O)cc1,inconclusive: -10.8%
16,COc1cccc(C(=O)Nc2cccc3cccnc23)c1OC,inconclusive: 18.9%
17,COc1ccccc1NC(=O)c1oc2ccccc2c1NC(=O)c1cc(OC)c(OC)c(OC)c1,inactive: -3.2%
18,C/C(=C\C(=O)Nc1nccs1)c1ccccc1,inactive: -6.2%
19,COc1ccc(Cl)cc1CN1CCOCC1,inconclusive: -76.8%
20,N/C(=N\OC(=O)COc1ccc(Br)cc1)c1cccc([N+](=O)[O-])c1,inconclusive: -83.6%
21,CN(c1ccccc1)c1nc2ccsc2c(=O)s1,inactive: 2.5%
22,CC(=O)Nc1cc2cc(NS(=O)(=O)c3ccc(Cl)cc3)ccc2oc1=O,inconclusive: 30.8%
23,COc1ccc(CNc2cccc3[nH]c(C(F)(F)F)nc23)cc1OC,inconclusive: -12.8%
24,COc1ccc(-c2nn(CCC#N)cc2C(=O)Nc2cccc([N+](=O)[O-])c2)cc1OC,inconclusive: -19.1%
25,CCN(CC)CC(C)CNC(=O)CN1C(=O)CSc2ccc(S(=O)(=O)N3CCOCC3)cc21 (stereo unspecified),inactive: 8.3%
26,NC(=O)CSc1nnc(COc2cccc3ccccc23)o1,inconclusive: 25.4%

# Shown with tabs: two of the compounds above.
row	SMILES	inhibition
19	COc1ccc(Cl)cc1CN1CCOCC1	inconclusive: -76.8%
20	N/C(=N\OC(=O)COc1ccc(Br)cc1)c1cccc([N+](=O)[O-])c1	inconclusive: -83.6%
